# Experimental data as given in publication PMC12322490.
# Amino acid sequences for entries named in this document (tags omitted). A change or cut given only in a name is not applied to a line headed by its entry.
# UniProt Q9JKK8: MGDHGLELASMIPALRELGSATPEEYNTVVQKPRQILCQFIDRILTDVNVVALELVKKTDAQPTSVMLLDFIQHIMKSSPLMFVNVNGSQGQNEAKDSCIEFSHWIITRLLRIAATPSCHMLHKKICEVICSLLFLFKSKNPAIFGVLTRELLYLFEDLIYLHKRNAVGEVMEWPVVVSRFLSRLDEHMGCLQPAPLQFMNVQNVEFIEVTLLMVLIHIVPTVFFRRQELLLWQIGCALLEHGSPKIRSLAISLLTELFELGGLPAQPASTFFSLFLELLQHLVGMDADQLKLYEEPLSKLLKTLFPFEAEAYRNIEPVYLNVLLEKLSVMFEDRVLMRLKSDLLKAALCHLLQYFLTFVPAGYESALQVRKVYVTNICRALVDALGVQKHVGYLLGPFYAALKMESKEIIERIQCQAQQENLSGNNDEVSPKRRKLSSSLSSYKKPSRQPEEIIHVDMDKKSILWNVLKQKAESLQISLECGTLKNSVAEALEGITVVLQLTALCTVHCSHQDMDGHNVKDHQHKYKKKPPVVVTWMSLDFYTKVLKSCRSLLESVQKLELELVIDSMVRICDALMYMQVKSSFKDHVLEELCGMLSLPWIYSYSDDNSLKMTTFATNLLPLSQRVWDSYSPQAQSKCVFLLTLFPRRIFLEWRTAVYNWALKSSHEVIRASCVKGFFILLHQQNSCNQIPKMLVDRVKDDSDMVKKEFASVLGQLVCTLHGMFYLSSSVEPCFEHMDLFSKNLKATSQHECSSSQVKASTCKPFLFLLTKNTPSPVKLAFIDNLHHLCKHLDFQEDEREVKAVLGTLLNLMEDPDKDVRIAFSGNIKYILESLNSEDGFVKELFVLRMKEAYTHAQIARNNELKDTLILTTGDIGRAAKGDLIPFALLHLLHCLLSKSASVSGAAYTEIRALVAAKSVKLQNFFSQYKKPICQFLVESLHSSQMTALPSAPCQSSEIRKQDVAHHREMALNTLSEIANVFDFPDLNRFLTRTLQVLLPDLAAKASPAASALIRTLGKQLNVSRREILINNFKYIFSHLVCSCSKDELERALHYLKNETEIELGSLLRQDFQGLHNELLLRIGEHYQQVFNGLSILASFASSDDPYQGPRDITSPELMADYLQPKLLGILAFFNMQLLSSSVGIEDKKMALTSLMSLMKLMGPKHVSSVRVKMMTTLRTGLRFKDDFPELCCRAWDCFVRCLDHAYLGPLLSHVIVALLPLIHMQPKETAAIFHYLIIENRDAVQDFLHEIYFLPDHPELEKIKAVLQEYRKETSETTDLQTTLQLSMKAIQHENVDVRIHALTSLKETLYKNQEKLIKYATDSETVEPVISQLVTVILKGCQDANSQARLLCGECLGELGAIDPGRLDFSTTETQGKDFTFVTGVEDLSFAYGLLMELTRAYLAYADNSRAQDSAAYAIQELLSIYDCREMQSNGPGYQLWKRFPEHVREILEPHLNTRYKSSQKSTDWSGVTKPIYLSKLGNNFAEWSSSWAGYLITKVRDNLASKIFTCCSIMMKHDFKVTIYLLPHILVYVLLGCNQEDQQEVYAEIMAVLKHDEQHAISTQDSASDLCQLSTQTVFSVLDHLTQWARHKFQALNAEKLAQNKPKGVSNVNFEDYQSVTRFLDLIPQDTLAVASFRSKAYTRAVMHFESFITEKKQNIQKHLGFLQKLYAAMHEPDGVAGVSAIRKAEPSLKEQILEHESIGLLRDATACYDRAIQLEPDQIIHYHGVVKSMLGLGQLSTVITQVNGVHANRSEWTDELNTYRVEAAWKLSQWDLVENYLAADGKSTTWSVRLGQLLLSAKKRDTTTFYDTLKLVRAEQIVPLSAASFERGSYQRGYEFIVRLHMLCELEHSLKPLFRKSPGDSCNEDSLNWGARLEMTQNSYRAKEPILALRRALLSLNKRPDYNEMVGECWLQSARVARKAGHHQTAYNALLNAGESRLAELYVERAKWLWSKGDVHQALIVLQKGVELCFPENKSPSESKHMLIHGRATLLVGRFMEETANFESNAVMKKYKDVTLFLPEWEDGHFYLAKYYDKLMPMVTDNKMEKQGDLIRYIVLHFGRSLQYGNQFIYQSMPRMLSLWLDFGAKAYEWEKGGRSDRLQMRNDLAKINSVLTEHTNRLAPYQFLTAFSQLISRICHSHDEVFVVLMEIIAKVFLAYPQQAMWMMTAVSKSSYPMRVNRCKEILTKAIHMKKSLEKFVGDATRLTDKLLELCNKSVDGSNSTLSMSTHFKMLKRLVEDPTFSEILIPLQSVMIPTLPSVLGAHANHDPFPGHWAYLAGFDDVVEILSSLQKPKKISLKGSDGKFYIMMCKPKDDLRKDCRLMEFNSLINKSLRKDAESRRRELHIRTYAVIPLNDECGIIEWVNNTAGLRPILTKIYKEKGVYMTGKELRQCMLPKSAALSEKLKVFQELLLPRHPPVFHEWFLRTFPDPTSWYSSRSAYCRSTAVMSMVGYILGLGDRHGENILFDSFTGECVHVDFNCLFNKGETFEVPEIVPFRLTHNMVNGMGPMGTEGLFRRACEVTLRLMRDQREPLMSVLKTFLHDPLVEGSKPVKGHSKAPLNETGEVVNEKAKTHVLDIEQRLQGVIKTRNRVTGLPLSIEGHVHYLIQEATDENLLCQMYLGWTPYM
# These are yes or no findings as the source states them, for the method shown. Binding seen in cells or lysates may run through a third protein. Some binding calls cover weakened binding; strength is not graded here.
# T1: autophagy related 13 (mouse (endogenous in primary Schwann cells)) (UniProt Q91YI1)
# T1 sequence: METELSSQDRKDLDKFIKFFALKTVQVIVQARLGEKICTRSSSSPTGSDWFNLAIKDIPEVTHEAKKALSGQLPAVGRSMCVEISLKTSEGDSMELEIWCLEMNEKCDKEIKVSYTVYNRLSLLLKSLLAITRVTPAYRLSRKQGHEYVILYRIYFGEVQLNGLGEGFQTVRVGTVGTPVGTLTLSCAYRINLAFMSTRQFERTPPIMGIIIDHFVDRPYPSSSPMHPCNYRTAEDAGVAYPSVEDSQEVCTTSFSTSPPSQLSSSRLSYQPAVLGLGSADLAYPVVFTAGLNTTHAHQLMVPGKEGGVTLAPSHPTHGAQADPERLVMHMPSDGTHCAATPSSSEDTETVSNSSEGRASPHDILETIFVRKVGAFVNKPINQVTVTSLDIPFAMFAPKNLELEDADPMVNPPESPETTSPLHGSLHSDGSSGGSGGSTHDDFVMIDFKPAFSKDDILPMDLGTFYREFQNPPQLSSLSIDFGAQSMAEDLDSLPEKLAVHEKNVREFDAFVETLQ
# Tests used:
# [1] = target: T1, autophagy related 13 (mouse (endogenous in primary Schwann cells)); test: co-IP; lysates of NR1-deficient and control primary Schwann cells cultured in glucose starvation medium (SD-G) for 0 and 24 h; immunoprecipitated with anti-ATR and blotted with anti-Atg13, and immunoprecipitated with anti-Atg13 and blotted with anti-ATR
# [2] = target: ataxia telangiectasia-mutated and Rad3-related protein (mouse (endogenous in primary Schwann cells)) (UniProt Q9JKK8); test: as above
binding [1],Molecule,binding [2]
binds,ataxia telangiectasia-mutated and Rad3-related protein (from UniProt Q9JKK8 1-2635),–
–,"autophagy related 13 (protein, UniProt Q91YI1 1-516) METELSSQDRKDLDKFIKFFALKTVQVIVQARLGEKICTRSSSSPTGSDWFNLAIKDIPEVTHEAKKALSGQLPAVGRSMCVEISLKTSEGDSMELEIWCLEMNEKCDKEIKVSYTVYNRLSLLLKSLLAITRVTPAYRLSRKQGHEYVILYRIYFGEVQLNGLGEGFQTVRVGTVGTPVGTLTLSCAYRINLAFMSTRQFERTPPIMGIIIDHFVDRPYPSSSPMHPCNYRTAEDAGVAYPSVEDSQEVCTTSFSTSPPSQLSSSRLSYQPAVLGLGSADLAYPVVFTAGLNTTHAHQLMVPGKEGGVTLAPSHPTHGAQADPERLVMHMPSDGTHCAATPSSSEDTETVSNSSEGRASPHDILETIFVRKVGAFVNKPINQVTVTSLDIPFAMFAPKNLELEDADPMVNPPESPETTSPLHGSLHSDGSSGGSGGSTHDDFVMIDFKPAFSKDDILPMDLGTFYREFQNPPQLSSLSIDFGAQSMAEDLDSLPEKLAVHEKNVREFDAFVETLQ",binds
